Where a name gives a salt, the structure may show the parent alone. Some of the results follow. The calls rarely recur for the same compound in another form.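 In K562 cells expressing nanoluciferase-fused kinases, luminescence was recorded at 4 h intervals between 2 and 18 h, normalized as percent of control with DMSO at 100% and a positive control at 0%. A significant (2 sigma) signal drop marks a time point as decreased. The authors' rule for a hit is not shown and takes in more than the number of time points.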
Tests used:
Assay in all cases: number of time points (of 5) at which kinase-Nluc abundance scored as decreased, DMSO-normalised (count); higher = more persistent destabilization
Conditions in all cases: K562; 2-18 h
EGFR_L861Q = EGFR_L861Q (UniProt P00533)
EGFR_T790M = EGFR_T790M (UniProt P00533)
EPHA2 = EPHA2 (UniProt P29317)
ERBB3 = ERBB3 (UniProt P21860)
[1] = biological target: ERBB4_R711C (clone: ERBB4_mut) (UniProt Q15303)
ERN1 = ERN1 (UniProt O75460)
FGFR1 = FGFR1 (UniProt P11362)
FGFR2 = FGFR2 (UniProt P21802)
FGFR3 = FGFR3 (UniProt P22607)
FGR = FGR (UniProt P09769)
FLT3 = FLT3 (UniProt P36888)
FYN = FYN (UniProt P06241)
GSK3A = GSK3A (UniProt P49840)
HER2 = HER2 (UniProt P04626)
INSRR = INSRR (UniProt P14616)
IRAK3 = IRAK3 (UniProt Q9Y616)
JAK1 = JAK1 (UniProt P23458)
LCK = LCK (UniProt P06239)
LIMK1 = LIMK1 (UniProt P53667)
LIMK2 = LIMK2 (UniProt P53671)

Sequences of proteins named here, by UniProt entry; tags and fusion partners are left off. A change or cut given only in a name is not applied to a line headed by its entry.
UniProt P29317, whole entry: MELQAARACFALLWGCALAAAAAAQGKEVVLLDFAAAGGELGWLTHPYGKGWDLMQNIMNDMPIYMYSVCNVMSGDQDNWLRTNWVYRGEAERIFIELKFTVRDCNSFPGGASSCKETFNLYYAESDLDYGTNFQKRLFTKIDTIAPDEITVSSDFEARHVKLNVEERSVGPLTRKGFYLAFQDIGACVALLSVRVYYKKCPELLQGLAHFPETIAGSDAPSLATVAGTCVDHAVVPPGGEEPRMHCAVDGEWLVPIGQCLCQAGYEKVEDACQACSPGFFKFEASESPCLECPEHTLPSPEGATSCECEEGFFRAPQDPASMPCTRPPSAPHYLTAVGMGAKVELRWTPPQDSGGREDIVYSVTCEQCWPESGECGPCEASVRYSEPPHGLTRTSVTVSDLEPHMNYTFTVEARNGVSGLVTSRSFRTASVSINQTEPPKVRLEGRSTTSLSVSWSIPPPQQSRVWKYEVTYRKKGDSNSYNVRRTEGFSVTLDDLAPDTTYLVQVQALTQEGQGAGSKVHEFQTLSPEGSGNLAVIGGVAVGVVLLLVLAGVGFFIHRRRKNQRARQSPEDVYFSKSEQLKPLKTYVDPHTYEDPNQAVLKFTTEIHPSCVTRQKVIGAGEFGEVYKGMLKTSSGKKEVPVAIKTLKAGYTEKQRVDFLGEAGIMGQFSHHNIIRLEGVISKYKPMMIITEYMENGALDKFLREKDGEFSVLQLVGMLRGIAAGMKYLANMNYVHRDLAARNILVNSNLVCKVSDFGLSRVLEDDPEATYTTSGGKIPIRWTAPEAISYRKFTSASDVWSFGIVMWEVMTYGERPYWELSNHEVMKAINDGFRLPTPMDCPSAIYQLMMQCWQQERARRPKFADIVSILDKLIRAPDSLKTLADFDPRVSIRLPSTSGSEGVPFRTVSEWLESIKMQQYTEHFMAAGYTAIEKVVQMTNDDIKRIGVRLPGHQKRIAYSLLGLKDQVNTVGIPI
UniProt O75460: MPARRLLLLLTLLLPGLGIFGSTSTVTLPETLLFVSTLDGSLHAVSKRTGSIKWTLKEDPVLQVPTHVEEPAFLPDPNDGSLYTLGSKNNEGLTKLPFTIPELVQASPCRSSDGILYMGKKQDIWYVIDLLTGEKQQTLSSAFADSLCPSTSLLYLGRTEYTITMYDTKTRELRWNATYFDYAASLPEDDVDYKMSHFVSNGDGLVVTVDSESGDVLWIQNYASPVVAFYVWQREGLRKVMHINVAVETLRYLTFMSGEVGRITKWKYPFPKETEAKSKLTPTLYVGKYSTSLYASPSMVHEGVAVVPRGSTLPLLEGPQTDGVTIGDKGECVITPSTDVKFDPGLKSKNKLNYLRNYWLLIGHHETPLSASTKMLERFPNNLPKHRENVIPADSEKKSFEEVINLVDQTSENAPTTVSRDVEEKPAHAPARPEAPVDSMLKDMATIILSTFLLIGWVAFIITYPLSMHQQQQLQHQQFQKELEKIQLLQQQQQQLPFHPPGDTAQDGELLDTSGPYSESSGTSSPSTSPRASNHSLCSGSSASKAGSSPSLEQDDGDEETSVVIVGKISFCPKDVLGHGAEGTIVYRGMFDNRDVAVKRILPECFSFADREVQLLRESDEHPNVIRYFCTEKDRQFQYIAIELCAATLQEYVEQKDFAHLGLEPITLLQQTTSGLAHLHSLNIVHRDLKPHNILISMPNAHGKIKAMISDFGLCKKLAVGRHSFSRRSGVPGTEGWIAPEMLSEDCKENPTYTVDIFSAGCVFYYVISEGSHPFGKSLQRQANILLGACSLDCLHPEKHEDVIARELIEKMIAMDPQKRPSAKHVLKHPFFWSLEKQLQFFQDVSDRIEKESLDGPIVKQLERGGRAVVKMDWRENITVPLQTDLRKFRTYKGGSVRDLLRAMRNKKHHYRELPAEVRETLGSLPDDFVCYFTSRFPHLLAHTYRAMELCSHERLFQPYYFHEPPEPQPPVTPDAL
UniProt P11362, whole entry, looked up: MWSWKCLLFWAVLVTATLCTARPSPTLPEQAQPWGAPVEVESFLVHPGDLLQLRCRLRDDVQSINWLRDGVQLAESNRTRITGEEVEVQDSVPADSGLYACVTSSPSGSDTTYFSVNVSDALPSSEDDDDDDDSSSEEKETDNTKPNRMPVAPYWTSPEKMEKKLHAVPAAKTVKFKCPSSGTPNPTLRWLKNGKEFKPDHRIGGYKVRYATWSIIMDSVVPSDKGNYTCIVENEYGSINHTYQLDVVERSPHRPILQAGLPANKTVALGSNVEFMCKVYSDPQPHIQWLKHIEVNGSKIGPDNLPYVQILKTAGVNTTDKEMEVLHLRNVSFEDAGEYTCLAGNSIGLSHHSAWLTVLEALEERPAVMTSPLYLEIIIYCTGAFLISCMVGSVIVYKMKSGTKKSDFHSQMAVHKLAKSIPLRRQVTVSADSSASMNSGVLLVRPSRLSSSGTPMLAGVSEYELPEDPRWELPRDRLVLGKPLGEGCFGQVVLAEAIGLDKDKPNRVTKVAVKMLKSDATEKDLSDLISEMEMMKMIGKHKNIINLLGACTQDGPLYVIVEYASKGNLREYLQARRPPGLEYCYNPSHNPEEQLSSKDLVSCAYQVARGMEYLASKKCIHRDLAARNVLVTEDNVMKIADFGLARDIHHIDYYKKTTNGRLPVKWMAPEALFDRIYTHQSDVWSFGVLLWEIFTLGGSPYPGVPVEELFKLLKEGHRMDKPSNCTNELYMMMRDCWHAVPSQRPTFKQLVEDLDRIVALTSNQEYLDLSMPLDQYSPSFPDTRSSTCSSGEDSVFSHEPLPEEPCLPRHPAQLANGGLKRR
UniProt P21802, whole entry, looked up: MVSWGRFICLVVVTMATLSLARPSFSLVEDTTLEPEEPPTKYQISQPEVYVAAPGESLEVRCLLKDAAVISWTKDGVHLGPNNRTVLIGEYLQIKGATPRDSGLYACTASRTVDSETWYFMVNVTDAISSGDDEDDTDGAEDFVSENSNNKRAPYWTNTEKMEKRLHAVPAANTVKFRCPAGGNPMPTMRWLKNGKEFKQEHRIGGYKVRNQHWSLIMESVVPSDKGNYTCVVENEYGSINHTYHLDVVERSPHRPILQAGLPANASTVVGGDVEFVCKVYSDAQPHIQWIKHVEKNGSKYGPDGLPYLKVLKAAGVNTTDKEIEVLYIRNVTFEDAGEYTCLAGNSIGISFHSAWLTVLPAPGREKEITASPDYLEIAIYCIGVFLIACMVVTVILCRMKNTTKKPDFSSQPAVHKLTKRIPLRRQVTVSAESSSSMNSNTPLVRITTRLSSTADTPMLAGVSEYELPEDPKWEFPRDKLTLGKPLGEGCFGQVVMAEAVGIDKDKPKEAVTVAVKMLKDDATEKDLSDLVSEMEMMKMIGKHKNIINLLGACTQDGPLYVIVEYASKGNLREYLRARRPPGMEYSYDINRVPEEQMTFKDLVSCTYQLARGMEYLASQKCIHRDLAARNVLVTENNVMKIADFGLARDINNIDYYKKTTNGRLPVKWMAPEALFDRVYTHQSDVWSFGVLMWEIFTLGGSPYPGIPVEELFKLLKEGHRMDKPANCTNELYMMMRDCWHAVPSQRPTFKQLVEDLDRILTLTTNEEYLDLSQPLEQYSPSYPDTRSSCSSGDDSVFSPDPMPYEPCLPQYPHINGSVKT
UniProt P06241, whole entry, looked up: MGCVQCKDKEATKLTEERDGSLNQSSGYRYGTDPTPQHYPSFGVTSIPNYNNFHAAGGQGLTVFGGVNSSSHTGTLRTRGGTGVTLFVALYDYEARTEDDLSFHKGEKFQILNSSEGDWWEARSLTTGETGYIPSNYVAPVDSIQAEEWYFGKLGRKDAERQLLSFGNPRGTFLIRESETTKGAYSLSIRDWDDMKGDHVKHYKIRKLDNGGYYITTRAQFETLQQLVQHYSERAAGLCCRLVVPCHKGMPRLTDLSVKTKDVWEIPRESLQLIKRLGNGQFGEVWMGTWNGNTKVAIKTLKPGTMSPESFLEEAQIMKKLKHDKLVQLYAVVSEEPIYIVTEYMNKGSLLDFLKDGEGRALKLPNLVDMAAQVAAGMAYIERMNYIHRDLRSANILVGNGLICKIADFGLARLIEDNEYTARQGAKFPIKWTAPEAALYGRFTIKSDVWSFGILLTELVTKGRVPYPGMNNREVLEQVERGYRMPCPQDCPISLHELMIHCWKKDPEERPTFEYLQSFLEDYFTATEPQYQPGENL
UniProt P49840: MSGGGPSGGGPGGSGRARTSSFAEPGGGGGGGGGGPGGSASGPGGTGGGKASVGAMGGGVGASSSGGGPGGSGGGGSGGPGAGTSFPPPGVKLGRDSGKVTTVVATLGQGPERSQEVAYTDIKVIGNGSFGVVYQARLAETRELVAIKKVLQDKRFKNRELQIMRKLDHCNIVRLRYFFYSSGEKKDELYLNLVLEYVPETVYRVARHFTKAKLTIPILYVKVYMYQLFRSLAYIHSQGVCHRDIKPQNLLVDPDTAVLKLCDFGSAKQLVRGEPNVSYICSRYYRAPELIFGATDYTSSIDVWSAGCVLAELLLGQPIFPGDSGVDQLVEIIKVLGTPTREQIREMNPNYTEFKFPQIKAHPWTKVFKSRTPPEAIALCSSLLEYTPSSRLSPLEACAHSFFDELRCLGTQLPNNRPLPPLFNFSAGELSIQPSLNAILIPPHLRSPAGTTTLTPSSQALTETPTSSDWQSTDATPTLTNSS
UniProt Q9Y616: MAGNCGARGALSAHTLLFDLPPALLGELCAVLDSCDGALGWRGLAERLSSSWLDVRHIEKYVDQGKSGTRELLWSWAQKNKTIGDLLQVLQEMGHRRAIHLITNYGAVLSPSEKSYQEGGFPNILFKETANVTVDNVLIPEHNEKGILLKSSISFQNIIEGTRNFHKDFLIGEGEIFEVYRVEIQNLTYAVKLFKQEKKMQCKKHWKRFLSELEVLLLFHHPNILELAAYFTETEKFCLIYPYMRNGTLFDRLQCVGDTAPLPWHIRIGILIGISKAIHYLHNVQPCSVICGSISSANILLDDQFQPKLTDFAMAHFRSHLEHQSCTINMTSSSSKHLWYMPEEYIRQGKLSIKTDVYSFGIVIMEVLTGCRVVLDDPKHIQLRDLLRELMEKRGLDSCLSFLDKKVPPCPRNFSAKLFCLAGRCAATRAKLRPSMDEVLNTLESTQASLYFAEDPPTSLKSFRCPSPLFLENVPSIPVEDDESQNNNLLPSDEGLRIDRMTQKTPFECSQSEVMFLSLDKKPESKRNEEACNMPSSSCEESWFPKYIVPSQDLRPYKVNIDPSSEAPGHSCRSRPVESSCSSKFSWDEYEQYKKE
UniProt P53667: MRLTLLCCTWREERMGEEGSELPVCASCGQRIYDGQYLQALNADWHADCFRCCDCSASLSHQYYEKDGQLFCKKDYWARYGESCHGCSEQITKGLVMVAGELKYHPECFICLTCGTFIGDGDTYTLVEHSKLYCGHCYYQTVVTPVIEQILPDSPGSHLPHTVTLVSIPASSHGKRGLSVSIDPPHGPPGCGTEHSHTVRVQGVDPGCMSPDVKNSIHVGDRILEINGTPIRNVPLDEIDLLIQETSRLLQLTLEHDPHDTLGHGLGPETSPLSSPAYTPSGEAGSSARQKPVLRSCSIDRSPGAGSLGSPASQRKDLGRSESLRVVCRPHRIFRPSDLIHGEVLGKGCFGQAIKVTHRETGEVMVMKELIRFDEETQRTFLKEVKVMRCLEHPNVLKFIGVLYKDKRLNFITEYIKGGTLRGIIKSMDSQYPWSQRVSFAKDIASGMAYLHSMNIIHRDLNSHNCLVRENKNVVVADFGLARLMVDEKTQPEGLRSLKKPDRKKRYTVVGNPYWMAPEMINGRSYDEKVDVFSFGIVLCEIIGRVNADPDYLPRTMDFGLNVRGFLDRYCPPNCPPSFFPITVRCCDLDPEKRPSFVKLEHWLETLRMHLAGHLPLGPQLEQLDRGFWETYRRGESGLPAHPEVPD
UniProt P53671: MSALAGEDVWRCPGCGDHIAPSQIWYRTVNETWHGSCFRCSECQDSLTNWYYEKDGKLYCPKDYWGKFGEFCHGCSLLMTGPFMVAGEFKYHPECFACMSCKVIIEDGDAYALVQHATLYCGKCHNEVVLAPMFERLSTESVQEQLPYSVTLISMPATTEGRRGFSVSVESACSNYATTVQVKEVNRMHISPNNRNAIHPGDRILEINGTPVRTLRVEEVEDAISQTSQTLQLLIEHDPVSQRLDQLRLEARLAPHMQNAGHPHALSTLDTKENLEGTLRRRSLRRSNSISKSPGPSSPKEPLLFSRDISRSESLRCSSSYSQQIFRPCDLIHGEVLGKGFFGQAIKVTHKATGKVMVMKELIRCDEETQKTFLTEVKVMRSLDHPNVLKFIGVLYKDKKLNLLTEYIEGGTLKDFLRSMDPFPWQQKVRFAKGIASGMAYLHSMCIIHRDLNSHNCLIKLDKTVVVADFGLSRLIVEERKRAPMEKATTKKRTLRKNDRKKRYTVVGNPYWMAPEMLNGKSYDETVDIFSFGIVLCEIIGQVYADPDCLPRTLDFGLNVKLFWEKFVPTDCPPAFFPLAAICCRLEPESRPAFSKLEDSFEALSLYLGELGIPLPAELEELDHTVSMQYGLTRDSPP

Measured: number of time points

Cc1ccccc1-n1c(Cn2ncc3c(N)ncnc32)nc2cccc(C)c2c1=O (10 µM)
0: all assays above

N#CC(C#N)=Cc1ccc([N+](=O)[O-])c(O)c1 (10 µM)
0: all assays above

CCCS(=O)(=O)Nc1ccc(F)c(-n2cc(-c3cncnc3)c3nc(N(C)C4CCN(CC)CC4)ccc32)c1F (2 µM)
0: all assays above

Cn1cc(C2=C(c3cn(C4CCN(Cc5ccccn5)CC4)c4ccccc34)C(=O)NC2=O)c2ccccc21 [Enzastaurin] (10 µM)
0: all assays above

O=C1c2ccccc2C(=O)c2c1cccc2-c1cnn(C2CCNCC2)c1 [PDK4-IN-1 (hydrochloride)] (10 µM)
2: LIMK1
0: all other assays above

N#CC(C#N)=Cc1ccc(O)c(O)c1 [Tyrphostin 23] (10 µM)
not listed: EGFR_L861Q | EGFR_T790M
0: all other assays above

O=C1C=CC[C@@H]2[C@H]3CCCN4CCC[C@@H](CN12)[C@@H]34 [Sophocarpine] (10 µM)
0: all assays above

CC1=C[C@]23C(=O)[C@@H](C=C(CO)[C@@H](O)[C@]2(O)[C@H]1O)[C@H]1[C@@H](C[C@H]3C)C1(C)C [Ingenol] (10 µM)
0: all assays above

O=C(N[C@@H](COc1ccc2[nH]c(=O)[nH]c2c1)c1ccccc1)c1cccn(Cc2ccc(F)c(F)c2)c1=O (2.5 µM)
0: all assays above

COc1ccc(/C=C/c2cc(OC)c(OC)c(OC)c2)cc1 (2.5 µM)
1: EGFR_T790M | FLT3 | LIMK1 | LIMK2
4: FYN
2: EGFR_L861Q | [1] | ERN1 | FGFR1 | INSRR | JAK1
0: all other assays above

COc1ccc2c(c1OC)C(OC)N(C)c1c-2ccc2cc3c(cc12)OCO3 (stereo not drawn) [Angoline] (10 µM)
0: all assays above

— the supplement of paper PMC12823440, “Inhibitors supercharge kinase turnover through native proteolytic circuits” (Nature, 2025)
